Assay results reported in patent US7879914B2, “Methods for treating viral infections using polyamine analogs” (Pathlogica LLC, priority 2005, dated 2011).
Some results were stated once for a whole list of compounds, not compound by compound.

Tested on: CD16+ monocytes
Experiment: Killing of CD16+ monocytes by polyamine biosynthesis inhibitors (Example 6)
Assay type: cell-based, human
Protocol: Mononuclear cells were isolated from individuals with HIV infection, uninfected individuals or a patient with ALS and incubated in the absence or presence of increasing concentrations of the PBIs, MGBG (PA-001) and CG47. After five days in culture under non-adherent conditions cells were isolated stained with antibodies to CD14+ and CD16+ and counted by flow cytometry using a FACSCAN (BD-biosciences). The fraction of CD14+ monocytes that expressed CD16 was determined and compared to levels seen in the absence of drug.
Those samples that were relatively resistant to PBIs required 100 μM or more of drug to achieve similar levels of killing. […] Overall 65% to 80% of samples from individuals with HAND were sensitive (>70% killing with 10 μM PBI or less) to PBIs.
The overall results with mononuclear cells from HIV infected individuals, ALS patients, and healthy controls are shown in FIG. 6. […] The number of mononuclear cell samples evaluated in each category were as follows: ALS with PA-001 (MGBG)=6, and with CG47=28. Drug resistant HIV with PA-001=22, and with CG47=48. HAD with PA-001=9, and with CG47=5. Healthy with PA-001=24, and with CG47=15.

Row | SMILES | reductions in levels of CD16+ monocytes (10 μM or less, most sensitive samples) | reduction in CD16+ monocytes (1 μM, five days in culture)
1 | CCNCCCNC/C=C\CNCCCNCC.Cl.Cl.Cl.Cl [CG47, N,N′-bis(3-ethylaminopropyl)-cis-but-2-ene-1,4-diamine tetrahydrochloride] | ≥ 70% | –
2 | CC(/C=N/NC(=N)N)=N\NC(=N)N [MGBG] | – | ≥ 70%
